Article doi:10.1101/2025.10.20.683495

Key:
[1] = biological target: GiARF1FA-HA (Giardia intestinalis) (UniProt A8BCC2); test: affinity purification with mass spectrometry
[2] = biological target: GiARF1FB1-HA (Giardia intestinalis) (UniProt A8BES2); test: affinity purification with mass spectrometry

Row | binding [1] | binding [2] | Substance
1 | binds | binds | FYVE domain-containing protein (GL50803_16653) (from UniProt A8BDZ8)
2 | – | binds | SAR1 GTPase (from UniProt Q8MQT8)
3 | – | binds | WD40 domain-containing protein (GL50803_10822) (from UniProt A8B6Z3)

Results are given in words; binding and its absence hold for the method and conditions named. Binding seen in cells or lysates may run through a third protein. Here binding means that the protein was enriched with, or labelled near, the bait; the list need not be complete.
